Experimental data from the supplement of paper PMC12823440, “Inhibitors supercharge kinase turnover through native proteolytic circuits” (Nature, 2025).
The other results are listed elsewhere or left out. Hit calls seldom repeat between salt and free forms of one compound.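 Kinases were expressed as nanoluciferase fusions in K562 cells and luminescence was read every 4 h between 2 and 18 h as percent of control, DMSO set to 100% and a positive control to 0%. A time point counts as decreased when the signal drops significantly (2 sigma). The hit call is the authors' own, does not follow from the count of time points alone, and its rule is not shown.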

By UniProt entry, the sequences of proteins in these tests, tags left out. Where a name states a change or a piece, a line headed by the entry shows the natural chain unless it says otherwise.
UniProt Q15208: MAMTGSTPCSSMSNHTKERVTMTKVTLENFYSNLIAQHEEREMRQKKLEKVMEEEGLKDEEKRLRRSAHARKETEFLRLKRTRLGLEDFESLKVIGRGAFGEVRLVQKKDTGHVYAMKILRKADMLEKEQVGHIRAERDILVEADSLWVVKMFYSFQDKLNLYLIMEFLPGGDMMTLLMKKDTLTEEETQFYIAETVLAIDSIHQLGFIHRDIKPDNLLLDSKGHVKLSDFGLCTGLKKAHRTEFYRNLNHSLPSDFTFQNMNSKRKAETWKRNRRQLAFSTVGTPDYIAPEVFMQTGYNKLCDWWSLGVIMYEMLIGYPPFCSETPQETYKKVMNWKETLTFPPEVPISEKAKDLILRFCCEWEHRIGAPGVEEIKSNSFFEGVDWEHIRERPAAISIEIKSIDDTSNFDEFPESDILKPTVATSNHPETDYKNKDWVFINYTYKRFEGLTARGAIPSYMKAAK
UniProt P29597: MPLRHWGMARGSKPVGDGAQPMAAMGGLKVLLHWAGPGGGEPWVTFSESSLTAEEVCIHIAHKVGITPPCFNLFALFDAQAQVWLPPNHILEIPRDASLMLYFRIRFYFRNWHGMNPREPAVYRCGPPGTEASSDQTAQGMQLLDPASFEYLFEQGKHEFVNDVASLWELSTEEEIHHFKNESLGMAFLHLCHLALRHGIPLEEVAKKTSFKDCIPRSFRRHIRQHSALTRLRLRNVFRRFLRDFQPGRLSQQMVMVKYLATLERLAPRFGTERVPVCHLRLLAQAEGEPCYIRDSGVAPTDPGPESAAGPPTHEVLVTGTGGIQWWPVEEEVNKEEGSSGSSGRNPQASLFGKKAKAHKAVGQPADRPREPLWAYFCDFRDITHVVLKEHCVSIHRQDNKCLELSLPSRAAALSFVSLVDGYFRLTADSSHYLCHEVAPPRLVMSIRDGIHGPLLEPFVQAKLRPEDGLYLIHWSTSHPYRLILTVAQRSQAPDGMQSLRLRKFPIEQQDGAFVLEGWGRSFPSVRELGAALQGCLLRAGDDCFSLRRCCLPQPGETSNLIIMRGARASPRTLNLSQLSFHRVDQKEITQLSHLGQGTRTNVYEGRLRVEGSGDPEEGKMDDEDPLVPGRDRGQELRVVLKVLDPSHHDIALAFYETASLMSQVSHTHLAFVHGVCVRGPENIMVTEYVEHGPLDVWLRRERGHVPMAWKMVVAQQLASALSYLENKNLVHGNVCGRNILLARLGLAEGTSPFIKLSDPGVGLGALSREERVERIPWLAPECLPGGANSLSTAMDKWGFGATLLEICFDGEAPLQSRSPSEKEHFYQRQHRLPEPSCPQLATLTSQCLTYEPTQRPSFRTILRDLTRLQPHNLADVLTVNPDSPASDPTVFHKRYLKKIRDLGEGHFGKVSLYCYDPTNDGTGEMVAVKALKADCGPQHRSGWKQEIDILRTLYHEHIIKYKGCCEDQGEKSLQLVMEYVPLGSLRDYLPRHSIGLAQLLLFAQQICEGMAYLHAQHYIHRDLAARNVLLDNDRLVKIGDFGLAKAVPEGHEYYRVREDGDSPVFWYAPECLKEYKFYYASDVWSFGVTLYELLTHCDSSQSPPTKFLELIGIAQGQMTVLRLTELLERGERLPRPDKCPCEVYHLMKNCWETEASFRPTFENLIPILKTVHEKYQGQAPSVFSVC
UniProt P07947, whole entry, looked up: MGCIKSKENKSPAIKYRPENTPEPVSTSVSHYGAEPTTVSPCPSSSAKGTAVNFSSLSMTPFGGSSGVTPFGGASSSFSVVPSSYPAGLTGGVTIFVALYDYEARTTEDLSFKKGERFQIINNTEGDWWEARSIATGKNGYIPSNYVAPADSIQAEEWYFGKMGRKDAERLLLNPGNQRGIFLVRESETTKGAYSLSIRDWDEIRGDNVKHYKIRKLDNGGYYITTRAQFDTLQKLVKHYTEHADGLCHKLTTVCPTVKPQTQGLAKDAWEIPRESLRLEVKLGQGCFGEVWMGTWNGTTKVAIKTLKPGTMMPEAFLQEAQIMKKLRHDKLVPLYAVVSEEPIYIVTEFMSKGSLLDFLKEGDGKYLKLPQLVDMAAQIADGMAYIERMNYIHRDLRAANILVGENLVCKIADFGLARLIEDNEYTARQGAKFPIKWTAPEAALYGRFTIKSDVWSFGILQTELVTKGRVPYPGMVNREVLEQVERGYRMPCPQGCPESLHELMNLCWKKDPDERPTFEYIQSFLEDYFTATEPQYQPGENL
UniProt P43403: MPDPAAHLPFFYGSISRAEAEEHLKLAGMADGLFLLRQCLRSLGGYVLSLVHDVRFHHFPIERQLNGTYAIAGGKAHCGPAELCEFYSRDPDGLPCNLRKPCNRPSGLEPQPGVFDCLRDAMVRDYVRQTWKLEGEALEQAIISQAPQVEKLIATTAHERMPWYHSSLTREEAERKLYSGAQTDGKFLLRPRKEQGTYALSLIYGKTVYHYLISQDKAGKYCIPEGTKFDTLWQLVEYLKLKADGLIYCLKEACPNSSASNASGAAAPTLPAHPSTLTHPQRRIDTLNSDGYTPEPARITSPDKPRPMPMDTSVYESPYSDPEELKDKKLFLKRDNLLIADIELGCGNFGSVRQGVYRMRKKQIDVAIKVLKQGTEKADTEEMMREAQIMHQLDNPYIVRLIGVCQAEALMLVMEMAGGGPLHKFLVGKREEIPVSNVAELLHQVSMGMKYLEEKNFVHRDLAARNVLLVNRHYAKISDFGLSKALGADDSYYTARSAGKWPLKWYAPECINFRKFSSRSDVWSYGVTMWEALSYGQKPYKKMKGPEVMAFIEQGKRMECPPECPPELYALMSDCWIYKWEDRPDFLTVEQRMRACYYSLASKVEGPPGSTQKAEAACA
UniProt P00519, whole entry: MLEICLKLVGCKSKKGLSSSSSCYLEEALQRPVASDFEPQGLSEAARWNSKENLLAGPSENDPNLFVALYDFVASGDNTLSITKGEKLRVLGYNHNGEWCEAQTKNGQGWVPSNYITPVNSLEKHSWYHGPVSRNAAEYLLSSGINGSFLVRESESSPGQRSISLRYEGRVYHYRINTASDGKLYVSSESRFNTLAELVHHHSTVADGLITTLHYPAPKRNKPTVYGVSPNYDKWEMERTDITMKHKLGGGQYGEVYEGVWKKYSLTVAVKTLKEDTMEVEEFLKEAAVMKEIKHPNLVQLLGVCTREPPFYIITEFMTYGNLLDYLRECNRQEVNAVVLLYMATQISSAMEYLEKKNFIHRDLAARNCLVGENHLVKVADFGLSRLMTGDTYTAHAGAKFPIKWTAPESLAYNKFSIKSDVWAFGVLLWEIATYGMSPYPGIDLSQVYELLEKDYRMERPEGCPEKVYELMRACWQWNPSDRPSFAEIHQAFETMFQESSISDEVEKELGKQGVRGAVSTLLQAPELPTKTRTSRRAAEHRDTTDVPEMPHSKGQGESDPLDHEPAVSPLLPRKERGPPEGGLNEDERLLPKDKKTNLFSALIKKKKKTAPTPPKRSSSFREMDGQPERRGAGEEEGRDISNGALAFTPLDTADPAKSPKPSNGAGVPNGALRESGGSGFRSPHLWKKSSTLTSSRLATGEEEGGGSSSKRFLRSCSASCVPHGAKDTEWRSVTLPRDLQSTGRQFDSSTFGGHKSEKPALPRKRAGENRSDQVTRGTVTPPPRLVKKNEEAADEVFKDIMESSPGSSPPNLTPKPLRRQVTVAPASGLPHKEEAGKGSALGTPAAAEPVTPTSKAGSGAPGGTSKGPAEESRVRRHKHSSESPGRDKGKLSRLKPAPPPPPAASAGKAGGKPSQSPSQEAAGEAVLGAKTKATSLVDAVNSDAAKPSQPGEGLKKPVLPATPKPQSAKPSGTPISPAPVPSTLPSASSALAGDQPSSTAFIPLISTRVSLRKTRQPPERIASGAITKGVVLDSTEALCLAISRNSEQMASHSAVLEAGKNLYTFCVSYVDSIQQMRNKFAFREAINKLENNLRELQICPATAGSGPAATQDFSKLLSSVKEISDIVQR
UniProt Q9UM73: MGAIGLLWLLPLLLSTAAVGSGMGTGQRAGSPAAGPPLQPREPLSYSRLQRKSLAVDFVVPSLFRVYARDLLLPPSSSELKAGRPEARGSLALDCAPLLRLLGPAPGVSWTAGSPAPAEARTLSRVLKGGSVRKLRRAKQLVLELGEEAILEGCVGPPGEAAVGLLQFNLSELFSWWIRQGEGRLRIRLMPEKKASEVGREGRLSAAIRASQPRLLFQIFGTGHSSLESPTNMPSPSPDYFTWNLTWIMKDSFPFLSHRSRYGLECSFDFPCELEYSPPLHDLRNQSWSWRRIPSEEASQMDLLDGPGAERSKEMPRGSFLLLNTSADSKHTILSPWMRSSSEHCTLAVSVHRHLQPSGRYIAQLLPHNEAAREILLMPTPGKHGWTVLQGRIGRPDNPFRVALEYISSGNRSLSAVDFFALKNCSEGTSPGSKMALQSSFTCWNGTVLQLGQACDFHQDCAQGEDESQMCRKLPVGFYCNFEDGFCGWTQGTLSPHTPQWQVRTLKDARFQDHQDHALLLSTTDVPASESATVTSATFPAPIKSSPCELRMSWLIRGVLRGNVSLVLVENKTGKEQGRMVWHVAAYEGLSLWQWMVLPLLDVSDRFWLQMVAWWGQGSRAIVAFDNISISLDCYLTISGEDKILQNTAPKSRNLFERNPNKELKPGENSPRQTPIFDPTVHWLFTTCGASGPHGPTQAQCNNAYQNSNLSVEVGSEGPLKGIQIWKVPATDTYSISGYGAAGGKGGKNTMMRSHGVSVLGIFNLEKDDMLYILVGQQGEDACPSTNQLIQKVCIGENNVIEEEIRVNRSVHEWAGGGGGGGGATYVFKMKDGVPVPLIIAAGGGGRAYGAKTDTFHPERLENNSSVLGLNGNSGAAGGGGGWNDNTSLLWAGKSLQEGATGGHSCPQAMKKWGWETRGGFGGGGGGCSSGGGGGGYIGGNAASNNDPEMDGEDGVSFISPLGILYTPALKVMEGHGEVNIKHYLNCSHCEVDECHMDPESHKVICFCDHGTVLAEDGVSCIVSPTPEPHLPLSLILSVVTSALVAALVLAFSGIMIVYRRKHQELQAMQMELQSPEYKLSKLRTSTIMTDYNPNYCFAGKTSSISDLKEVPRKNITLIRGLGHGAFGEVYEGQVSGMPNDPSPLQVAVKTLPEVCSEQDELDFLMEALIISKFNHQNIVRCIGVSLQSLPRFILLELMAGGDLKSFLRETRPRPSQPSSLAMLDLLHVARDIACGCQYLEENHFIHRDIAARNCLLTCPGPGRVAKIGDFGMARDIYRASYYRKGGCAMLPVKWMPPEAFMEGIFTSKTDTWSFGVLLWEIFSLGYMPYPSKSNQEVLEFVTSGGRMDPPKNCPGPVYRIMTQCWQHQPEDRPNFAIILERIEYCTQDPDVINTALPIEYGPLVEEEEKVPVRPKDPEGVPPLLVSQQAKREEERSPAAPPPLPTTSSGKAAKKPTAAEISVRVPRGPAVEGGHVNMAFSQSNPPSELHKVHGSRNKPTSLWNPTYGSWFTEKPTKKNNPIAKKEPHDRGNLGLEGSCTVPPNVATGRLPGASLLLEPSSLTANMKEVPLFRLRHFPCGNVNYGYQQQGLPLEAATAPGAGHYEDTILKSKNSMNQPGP
UniProt O14965: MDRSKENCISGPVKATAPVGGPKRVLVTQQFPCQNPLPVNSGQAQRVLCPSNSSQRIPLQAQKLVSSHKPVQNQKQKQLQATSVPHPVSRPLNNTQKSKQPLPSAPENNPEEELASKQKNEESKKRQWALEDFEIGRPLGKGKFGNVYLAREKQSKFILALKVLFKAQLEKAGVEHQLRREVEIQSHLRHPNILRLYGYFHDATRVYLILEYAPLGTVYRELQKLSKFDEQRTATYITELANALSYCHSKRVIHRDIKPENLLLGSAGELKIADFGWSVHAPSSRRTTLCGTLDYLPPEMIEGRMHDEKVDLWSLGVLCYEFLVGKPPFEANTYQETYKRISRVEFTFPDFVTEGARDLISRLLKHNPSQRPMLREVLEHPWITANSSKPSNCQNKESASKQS
UniProt P51451: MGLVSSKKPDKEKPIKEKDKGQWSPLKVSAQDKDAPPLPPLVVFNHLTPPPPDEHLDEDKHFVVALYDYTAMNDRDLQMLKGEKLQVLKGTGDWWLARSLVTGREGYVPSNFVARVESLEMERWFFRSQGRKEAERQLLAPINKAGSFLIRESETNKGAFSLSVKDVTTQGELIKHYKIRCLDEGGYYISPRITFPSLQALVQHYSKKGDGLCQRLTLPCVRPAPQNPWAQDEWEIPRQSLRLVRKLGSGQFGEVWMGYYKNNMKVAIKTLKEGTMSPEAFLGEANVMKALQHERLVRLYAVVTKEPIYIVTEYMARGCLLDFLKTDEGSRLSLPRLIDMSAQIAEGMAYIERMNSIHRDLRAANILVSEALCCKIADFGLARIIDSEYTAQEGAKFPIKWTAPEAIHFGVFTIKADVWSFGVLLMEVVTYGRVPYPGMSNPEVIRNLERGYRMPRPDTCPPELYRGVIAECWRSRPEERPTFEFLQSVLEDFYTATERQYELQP

What was measured:
Details in all cases: K562; 2-18 h
STK38 = STK38 (UniProt Q15208); experiment: kinase-Nluc reporter destabilization hit call (1 = scored as downregulated) (binary); higher = compound decreases kinase abundance
SYK = SYK (UniProt P43405); experiment: as above
TEC = TEC (UniProt P42680); experiment: as above
TYK2 = TYK2 (UniProt P29597); experiment: as above
ULK3 = ULK3 (UniProt Q6PHR2); experiment: as above
YES1 = YES1 (UniProt P07947); experiment: as above
ZAK = ZAK (UniProt Q9NYL2); experiment: as above
ZAP70 = ZAP70 (UniProt P43403); experiment: as above
ABL1 = ABL1 (UniProt P00519); experiment: number of time points (of 5) at which kinase-Nluc abundance scored as decreased, DMSO-normalised (count); higher = more persistent destabilization
AKT1 = AKT1 (UniProt P31749); experiment: as above
ALK = ALK (UniProt Q9UM73); experiment: as above
ARAF = ARAF (UniProt P10398); experiment: as above
AURKA = AURKA (UniProt O14965); experiment: as above
AURKB = AURKB (UniProt Q96GD4); experiment: as above
AURKC = AURKC (UniProt Q9UQB9); experiment: as above
BLK = BLK (UniProt P51451); experiment: as above
BMX = BMX (UniProt P51813); experiment: as above
BRAF = BRAF (UniProt P15056); experiment: as above
BRAF_V600E = experiment: as above
BTK = BTK (UniProt Q06187); experiment: as above

O=C1NC(=Nc2c(Cl)cccc2Cl)S/C1=C\c1ccc2nccnc2c1 (2.5 µM)
1: number of time points (BRAF)
2: number of time points (ABL1) | number of time points (ALK)
inactive: kinase-Nluc reporter destabilization hit call (STK38) 0 | kinase-Nluc reporter destabilization hit call (SYK) 0 | kinase-Nluc reporter destabilization hit call (TEC) 0 | kinase-Nluc reporter destabilization hit call (TYK2) 0 | kinase-Nluc reporter destabilization hit call (ULK3) 0 | kinase-Nluc reporter destabilization hit call (YES1) 0 | kinase-Nluc reporter destabilization hit call (ZAK) 0 | kinase-Nluc reporter destabilization hit call (ZAP70) 0
0: number of time points (AKT1) | number of time points (ARAF) | number of time points (AURKA) | number of time points (AURKB) | number of time points (AURKC) | number of time points (BLK) | number of time points (BMX) | number of time points (BRAF_V600E) | number of time points (BTK)

O=C1O[C@H]([C@@H](O)CO)C(O)=C1OP(=O)(O)O [2-Phospho-L-ascorbic acid (trisodium)] (10 µM)
0: number of time points (ABL1) | number of time points (AKT1) | number of time points (ALK) | number of time points (ARAF) | number of time points (AURKA) | number of time points (AURKB) | number of time points (AURKC) | number of time points (BLK) | number of time points (BMX) | number of time points (BRAF) | number of time points (BRAF_V600E) | number of time points (BTK)
inactive: kinase-Nluc reporter destabilization hit call (STK38) 0 | kinase-Nluc reporter destabilization hit call (SYK) 0 | kinase-Nluc reporter destabilization hit call (TEC) 0 | kinase-Nluc reporter destabilization hit call (TYK2) 0 | kinase-Nluc reporter destabilization hit call (ULK3) 0 | kinase-Nluc reporter destabilization hit call (YES1) 0 | kinase-Nluc reporter destabilization hit call (ZAK) 0 | kinase-Nluc reporter destabilization hit call (ZAP70) 0

C=CC(=O)N1CCC[C@H](n2c(=O)n(-c3ccc(Oc4ccccc4)cc3)c3c(N)ncnc32)C1 [ONO-4059 (analog)] (10 µM)
inactive: kinase-Nluc reporter destabilization hit call (STK38) 0 | kinase-Nluc reporter destabilization hit call (SYK) 0 | kinase-Nluc reporter destabilization hit call (TEC) 0 | kinase-Nluc reporter destabilization hit call (TYK2) 0 | kinase-Nluc reporter destabilization hit call (ULK3) 0 | kinase-Nluc reporter destabilization hit call (YES1) 0 | kinase-Nluc reporter destabilization hit call (ZAK) 0 | kinase-Nluc reporter destabilization hit call (ZAP70) 0
0: number of time points (ABL1) | number of time points (AKT1) | number of time points (ALK) | number of time points (ARAF) | number of time points (AURKA) | number of time points (AURKB) | number of time points (AURKC) | number of time points (BLK) | number of time points (BMX) | number of time points (BRAF) | number of time points (BRAF_V600E) | number of time points (BTK)

C=CC(=O)Nc1cc(-n2c(=O)ccc3cnc4ccc(-c5ccc(NS(C)(=O)=O)cc5)cc4c32)ccc1C (10 µM)
inactive: kinase-Nluc reporter destabilization hit call (STK38) 0 | kinase-Nluc reporter destabilization hit call (SYK) 0 | kinase-Nluc reporter destabilization hit call (TEC) 0 | kinase-Nluc reporter destabilization hit call (ULK3) 0 | kinase-Nluc reporter destabilization hit call (YES1) 0 | kinase-Nluc reporter destabilization hit call (ZAK) 0 | kinase-Nluc reporter destabilization hit call (ZAP70) 0
3: number of time points (BRAF)
0: number of time points (ABL1) | number of time points (AKT1) | number of time points (ALK) | number of time points (ARAF) | number of time points (AURKA) | number of time points (AURKB) | number of time points (AURKC) | number of time points (BLK) | number of time points (BMX) | number of time points (BRAF_V600E) | number of time points (BTK)
active: kinase-Nluc reporter destabilization hit call (TYK2) 1

N#CC(c1ccnc(OCc2ccc(CN3CCOCC3)cc2)n1)c1nc2ccccc2s1 (stereo not given) [Bentamapimod] (2.5 µM)
0: number of time points (ABL1) | number of time points (AKT1) | number of time points (ALK) | number of time points (ARAF) | number of time points (AURKA) | number of time points (AURKB) | number of time points (AURKC) | number of time points (BLK) | number of time points (BMX) | number of time points (BRAF) | number of time points (BRAF_V600E) | number of time points (BTK)
inactive: kinase-Nluc reporter destabilization hit call (STK38) 0 | kinase-Nluc reporter destabilization hit call (SYK) 0 | kinase-Nluc reporter destabilization hit call (TEC) 0 | kinase-Nluc reporter destabilization hit call (TYK2) 0 | kinase-Nluc reporter destabilization hit call (ULK3) 0 | kinase-Nluc reporter destabilization hit call (YES1) 0 | kinase-Nluc reporter destabilization hit call (ZAK) 0 | kinase-Nluc reporter destabilization hit call (ZAP70) 0

Cc1cc2sc(NC(=O)Cc3ccccc3)nc2cc1Cl (10 µM)
inactive: kinase-Nluc reporter destabilization hit call (STK38) 0 | kinase-Nluc reporter destabilization hit call (SYK) 0 | kinase-Nluc reporter destabilization hit call (TEC) 0 | kinase-Nluc reporter destabilization hit call (TYK2) 0 | kinase-Nluc reporter destabilization hit call (ULK3) 0 | kinase-Nluc reporter destabilization hit call (YES1) 0 | kinase-Nluc reporter destabilization hit call (ZAK) 0 | kinase-Nluc reporter destabilization hit call (ZAP70) 0
0: number of time points (ABL1) | number of time points (AKT1) | number of time points (ALK) | number of time points (ARAF) | number of time points (AURKA) | number of time points (AURKB) | number of time points (AURKC) | number of time points (BLK) | number of time points (BMX) | number of time points (BRAF) | number of time points (BRAF_V600E) | number of time points (BTK)

C[C@@H]1CN(c2cc(-c3n[nH]c4ccc(OC5(C)CC5)cc34)ncn2)C[C@H](C)O1 (10 µM)
inactive: kinase-Nluc reporter destabilization hit call (STK38) 0 | kinase-Nluc reporter destabilization hit call (SYK) 0 | kinase-Nluc reporter destabilization hit call (TEC) 0 | kinase-Nluc reporter destabilization hit call (TYK2) 0 | kinase-Nluc reporter destabilization hit call (ULK3) 0 | kinase-Nluc reporter destabilization hit call (YES1) 0 | kinase-Nluc reporter destabilization hit call (ZAK) 0 | kinase-Nluc reporter destabilization hit call (ZAP70) 0
0: number of time points (ABL1) | number of time points (AKT1) | number of time points (ALK) | number of time points (ARAF) | number of time points (AURKA) | number of time points (AURKB) | number of time points (AURKC) | number of time points (BLK) | number of time points (BMX) | number of time points (BRAF) | number of time points (BRAF_V600E) | number of time points (BTK)

COc1ccc2cc(-c3nc(-c4ccc([S+](C)[O-])cc4)[nH]c3-c3ccncc3)ccc2c1 (stereo not given) [Tie2 kinase inhibitor 1] (2.5 µM)
inactive: kinase-Nluc reporter destabilization hit call (STK38) 0 | kinase-Nluc reporter destabilization hit call (SYK) 0 | kinase-Nluc reporter destabilization hit call (TEC) 0 | kinase-Nluc reporter destabilization hit call (TYK2) 0 | kinase-Nluc reporter destabilization hit call (ULK3) 0 | kinase-Nluc reporter destabilization hit call (YES1) 0 | kinase-Nluc reporter destabilization hit call (ZAK) 0 | kinase-Nluc reporter destabilization hit call (ZAP70) 0
0: number of time points (ABL1) | number of time points (AKT1) | number of time points (ALK) | number of time points (ARAF) | number of time points (AURKA) | number of time points (AURKB) | number of time points (AURKC) | number of time points (BLK) | number of time points (BMX) | number of time points (BRAF) | number of time points (BRAF_V600E) | number of time points (BTK)

CC(C)C[C@@H](C(=O)Nc1ccn(C[C@@H](O)CO)n1)N1CC(Oc2ccccc2Cl)=CC1=O [Dorzagliatin] (10 µM)
inactive: kinase-Nluc reporter destabilization hit call (STK38) 0 | kinase-Nluc reporter destabilization hit call (SYK) 0 | kinase-Nluc reporter destabilization hit call (TEC) 0 | kinase-Nluc reporter destabilization hit call (TYK2) 0 | kinase-Nluc reporter destabilization hit call (ULK3) 0 | kinase-Nluc reporter destabilization hit call (YES1) 0 | kinase-Nluc reporter destabilization hit call (ZAK) 0 | kinase-Nluc reporter destabilization hit call (ZAP70) 0
0: number of time points (ABL1) | number of time points (AKT1) | number of time points (ALK) | number of time points (ARAF) | number of time points (AURKA) | number of time points (AURKB) | number of time points (AURKC) | number of time points (BLK) | number of time points (BMX) | number of time points (BRAF) | number of time points (BRAF_V600E) | number of time points (BTK)
